Screen size: about 580,000 compounds; about 6,100 (1.1%) were called active. Inconclusive results, whose numbers are uncertain, are shown with a selection of clear calls. Calls come from the whole dose curve; as a rule, active = well fitted inhibition curve with a large enough effect; inconclusive = small, poorly fitted or top-dose-only effect, or another doubt; inactive = no such curve, though single readings can be large or run the other way. A potency beside an inconclusive call is a rough fit, not a confirmed value.
molecular target: Polyunsaturated fatty acid lipoxygenase ALOX12 (Homo sapiens) (UniProt P18054); assay: Primary qHTS assay for inhibitors of human arachidonate 12S-lipoxygenase (ALOX12): Round 2; details: purified 12hLO, xylenol orange hydroperoxide absorbance; series mostly up to 108 µM
How it was run: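 Purified human 12hLO (150 nM final) in 25 mM Hepes, 0.01% Triton X-100, pH 7.0 was preincubated 15 min at room temperature with compound. Then 40 uM arachidonic acid was added, 30 min. Hydroperoxide was read by Fe-XO absorbance ratio 573/405 nm.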
Potency is the fitted concentration of half-maximal effect.

Protein sequences, listed by entry. Tags and fused reporters are not part of them. Lines headed by an entry give the natural chain unless they say otherwise; changes in a name come on top.
UniProt P18054: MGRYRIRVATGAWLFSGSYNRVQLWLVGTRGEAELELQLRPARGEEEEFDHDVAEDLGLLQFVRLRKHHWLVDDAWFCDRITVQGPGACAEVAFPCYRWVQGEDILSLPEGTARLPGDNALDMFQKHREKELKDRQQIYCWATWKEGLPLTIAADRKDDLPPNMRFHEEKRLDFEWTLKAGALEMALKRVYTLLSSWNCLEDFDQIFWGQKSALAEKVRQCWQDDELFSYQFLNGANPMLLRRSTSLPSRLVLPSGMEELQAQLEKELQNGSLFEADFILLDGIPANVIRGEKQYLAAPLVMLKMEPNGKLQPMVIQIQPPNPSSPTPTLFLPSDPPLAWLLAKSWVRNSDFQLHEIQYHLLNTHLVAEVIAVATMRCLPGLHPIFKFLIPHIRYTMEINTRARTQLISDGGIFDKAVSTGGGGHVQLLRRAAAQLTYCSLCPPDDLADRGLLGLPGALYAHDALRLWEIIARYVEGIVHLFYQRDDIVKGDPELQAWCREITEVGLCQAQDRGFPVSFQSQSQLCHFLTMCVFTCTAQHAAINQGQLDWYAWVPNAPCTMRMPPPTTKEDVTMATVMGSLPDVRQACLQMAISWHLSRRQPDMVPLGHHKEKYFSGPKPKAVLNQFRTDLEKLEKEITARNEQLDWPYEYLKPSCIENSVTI

Compound	Potency
CSCCC(c1nc2ccccc2[nH]1)n1c(=O)c(-c2ccco2)nc2ccccc21 (stereo unspecified)	inconclusive: 39.8 µM [inhibitor, partial curve]
Cc1ccc(S(=O)(=O)N2CCCCC2)cc1NC(=O)CCc1nc2ccccc2c(=O)[nH]1	inactive
COC(=O)c1ccc(OCCCCN2CC(C)OC(C)C2)cc1 (stereo unspecified)	inconclusive: 0.562 µM [inhibitor, full curve, poor fit]
CCCN1CCCc2cc(CN(CCCN3CCOCC3)C(=O)Nc3ccc(CC)cc3)ccc21	inconclusive: 56.2 µM [inhibitor, partial curve, poor fit]
COC(=O)c1ccccc1NC(=O)/C=C/c1ccco1	inactive
COc1ccc(NC(=O)CSCC(=O)Nc2ccc(S(=O)(=O)N3CCCCC3)cc2)cc1	inconclusive: 79.4 µM [inhibitor, partial curve, poor fit]
CC(=O)NNc1nc(-c2ccccc2)c2cc(Cl)ccc2n1	inactive
Cc1cc(C)c(NC(=S)NCCCSC2CCCCC2)c(C)c1	active: 25.1 µM
Cc1ccccc1CC(=O)Nc1cc(C(C)(C)C)on1	active: 5.01 µM
COc1cccc(NS(=O)(=O)c2ccc3[nH]cc(C(=O)N(C)C4CCCCC4)c(=O)c3c2)c1	inconclusive: 63.1 µM [inhibitor, partial curve, poor fit]
COc1ccc2oc(=O)cc(CN3CCN(c4ccccc4F)CC3)c2c1	inconclusive: 141 µM [inhibitor, partial curve, poor fit]
O=C(Cc1cccs1)Nc1ccc2c(c1)OCCCO2	inconclusive: 28.2 µM [inhibitor, full curve, poor fit]
O=C(Nc1ccc(S(=O)(=O)NCc2cccnc2)cc1)c1ccco1	inactive
O=C(Nc1cccc(C(=O)N2CCOCC2)c1)c1cncc(Br)c1	inconclusive: 15.8 µM [inhibitor, full curve]
O=c1c(-c2ccccc2)nc2cnc(N3CCNCC3)nc2n1Cc1cccs1	inconclusive: 100 µM [inhibitor, single point]
CC1=CCC2C(C)(C)CCCC2(C)C1CC/C(C)=C/CC/C(C)=N/NC(N)=O (stereo unspecified)	inconclusive: 39.8 µM [inhibitor, partial curve, poor fit]
NOCC(=O)O	inactive
Cc1csc(NC(=O)C2C3C=CC(O3)C2C(=O)O)n1 (stereo unspecified)	inactive
Cc1ccccc1S(=O)(=O)N1[C@@H](c2ccc(Cl)cc2)C(C(=O)O)=CC[C@H]1c1ccc(Cl)cc1	inconclusive: 79.4 µM [inhibitor, partial curve, poor fit]
CCN(CC(=O)NCc1cccs1)CC(=O)Nc1ccc(C(N)=O)cc1	inconclusive: 3.98 µM [inhibitor, full curve, poor fit]
CCC(=O)NCCC12CC3CC(CC(C3)C1)C2	inactive

A different layout for some results above:
Compound | Potency
CSCCC(c1nc2ccccc2[nH]1)n1c(=O)c(-c2ccco2)nc2ccccc21 (stereo unspecified) | inconclusive: 39.8 µM [inhibitor, partial curve]
Cc1ccc(S(=O)(=O)N2CCCCC2)cc1NC(=O)CCc1nc2ccccc2c(=O)[nH]1 | inactive
COC(=O)c1ccc(OCCCCN2CC(C)OC(C)C2)cc1 (stereo unspecified) | inconclusive: 0.562 µM [inhibitor, full curve, poor fit]

(more compounds)

Compound	Potency
CCCCCCCc1c(C(=O)O)c2ccccc2c2ccccc12	inconclusive: 50.1 µM [inhibitor, partial curve, poor fit]
COc1cc(/C=C2\C(=O)N(c3ccc(S(N)(=O)=O)cc3)N=C2C)ccc1OC(=O)c1ccco1	inconclusive: 50.1 µM [inhibitor, partial curve, poor fit]
CCOC(=O)c1sc(NC(=O)c2ccc3nc[nH]c3c2)nc1C	inactive
Cc1ccc(NC(=O)CSCC(=O)NC2=NCCS2)cc1	inconclusive: 22.4 µM [inhibitor, partial curve, poor fit]
NS(=O)(=O)c1ccc(CCNC(=O)CCNC(=O)c2ccco2)cc1	inconclusive: 112 µM [inhibitor, single point]
C=CCOc1ccc(/C=C/C(=O)c2ccc(OCCCCC)cc2)cc1	inconclusive: 141 µM [inhibitor, partial curve, poor fit]
C[C@H](CO)N1C[C@H](C)[C@@H](CN(C)C(=O)Nc2ccc(C(F)(F)F)cc2)Oc2c(NC(=O)Nc3ccc(C(F)(F)F)cc3)cccc2C1=O	inconclusive: 89.1 µM [inhibitor, partial curve, poor fit]
Cc1ccc2nc(Nc3nc(C)c(Cc4cccc(Cl)c4)c(=O)[nH]3)nc(C)c2c1	inactive
Cc1ccc(Nc2nc(Oc3ccc(OCc4ccccc4)nn3)nc(N3CCOCC3)n2)cc1	inconclusive: 44.7 µM [inhibitor, partial curve, poor fit]
COCC(C)n1c(C)cc(C(=O)COC(=O)CCc2nc3ccccc3c(=O)[nH]2)c1C (stereo unspecified)	inactive
COc1ccc(-c2csc(NC(=O)CN3C(=O)CCC3=O)n2)cc1OC	inactive
C[C@@H]1[C@H]2[C@@H]3CC[C@@H](C3)[C@H]2CN[C@H]1c1cn(Cc2ccccc2)c2ccccc12	inconclusive: 44.7 µM [inhibitor, partial curve, poor fit]
O=[S+]([O-])(Nc1nncs1)c1ccc2c(c1)OCCN(Cc1ccccc1)C2	inconclusive: 7.94 µM [inhibitor, full curve, poor fit]
Cc1ccc(NC(=O)c2cc3c(CO)cnc(C)c3oc2=Nc2cccc(C(N)=O)c2)cc1	inconclusive: 2.51 µM [inhibitor, partial curve, poor fit]
CCN(CC)S(=O)(=O)c1ccc(CNC(=O)c2ccccc2OCc2cn3ccccc3n2)cc1	inactive
CCN=C1NC(c2ccc(F)cc2)C(C(=O)OC)=C(C)N1Cc1cccc(C(F)(F)F)c1 (stereo unspecified)	inconclusive: 50.1 µM [inhibitor, partial curve, poor fit]
COc1ccc(S(=O)(=O)N2CCCCC2)cc1NC(=O)CCC(=O)N1CCC(c2ccccc2)=N1	inconclusive: 126 µM [inhibitor, single point]
CC(C)C[C@H]1CN([C@@H](Cc2ccccc2)CN2CCCC2CN2C(=S)NC[C@@H]2Cc2ccccc2)C(=S)N1CC1CCCCC1 (stereo partly specified)	inconclusive: 39.8 µM [inhibitor, partial curve]
COc1ccc(-c2noc(Nc3ccc4c(c3)OCO4)n2)cc1	inconclusive: 3.16 µM [inhibitor, full curve]
CCc1ccc(C(=O)C(C)OC(=O)CN2C(=O)NC3(CCCC3)C2=O)cc1 (stereo unspecified)	inconclusive: 44.7 µM [inhibitor, partial curve, poor fit]

From PubChem BioAssay AID1671190 (National Center for Advancing Translational Sciences (NCATS), 2021)
